Measurements taken from paper PMC12463113.
These are yes or no findings as the source states them, for the method shown. In cells and extracts the contact can be indirect. Some binding calls cover weakened binding; strength is not graded here.

Amino acid sequences for entries named in this document (tags omitted).
UniProt P14618: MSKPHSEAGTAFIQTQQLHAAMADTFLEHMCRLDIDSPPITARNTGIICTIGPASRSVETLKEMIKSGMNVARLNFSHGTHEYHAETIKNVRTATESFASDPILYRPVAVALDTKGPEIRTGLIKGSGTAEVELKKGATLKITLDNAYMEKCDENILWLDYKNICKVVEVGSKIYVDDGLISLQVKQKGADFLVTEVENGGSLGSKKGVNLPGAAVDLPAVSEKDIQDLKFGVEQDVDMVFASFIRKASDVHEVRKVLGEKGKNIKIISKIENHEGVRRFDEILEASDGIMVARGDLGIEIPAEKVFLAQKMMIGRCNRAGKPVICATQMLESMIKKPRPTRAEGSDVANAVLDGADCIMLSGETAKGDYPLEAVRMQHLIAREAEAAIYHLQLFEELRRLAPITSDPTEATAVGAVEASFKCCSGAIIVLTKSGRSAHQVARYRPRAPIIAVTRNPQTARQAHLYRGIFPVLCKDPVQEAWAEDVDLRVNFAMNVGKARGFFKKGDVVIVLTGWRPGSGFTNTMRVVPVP
UniProt Q16665: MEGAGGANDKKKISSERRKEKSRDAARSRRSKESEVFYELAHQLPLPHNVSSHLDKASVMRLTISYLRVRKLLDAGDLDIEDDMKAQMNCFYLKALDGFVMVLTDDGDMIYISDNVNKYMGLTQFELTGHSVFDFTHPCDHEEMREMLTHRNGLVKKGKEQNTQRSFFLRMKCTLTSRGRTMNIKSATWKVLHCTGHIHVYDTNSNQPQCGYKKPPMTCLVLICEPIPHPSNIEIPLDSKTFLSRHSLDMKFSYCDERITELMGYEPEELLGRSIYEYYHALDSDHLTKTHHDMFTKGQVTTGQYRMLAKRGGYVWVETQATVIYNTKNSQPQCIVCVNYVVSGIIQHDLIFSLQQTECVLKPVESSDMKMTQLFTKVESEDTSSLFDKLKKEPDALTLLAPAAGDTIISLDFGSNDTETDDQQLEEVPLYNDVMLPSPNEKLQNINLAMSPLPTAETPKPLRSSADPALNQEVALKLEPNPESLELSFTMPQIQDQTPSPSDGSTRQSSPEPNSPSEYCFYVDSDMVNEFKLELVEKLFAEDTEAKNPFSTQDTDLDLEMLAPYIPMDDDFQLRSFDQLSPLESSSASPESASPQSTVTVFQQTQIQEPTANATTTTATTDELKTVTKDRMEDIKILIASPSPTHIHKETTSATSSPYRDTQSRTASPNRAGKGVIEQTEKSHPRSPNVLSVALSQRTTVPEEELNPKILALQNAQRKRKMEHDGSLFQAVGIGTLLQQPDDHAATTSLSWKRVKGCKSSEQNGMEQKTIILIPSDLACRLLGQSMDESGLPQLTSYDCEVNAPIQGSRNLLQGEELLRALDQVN
UniProt Q8N371: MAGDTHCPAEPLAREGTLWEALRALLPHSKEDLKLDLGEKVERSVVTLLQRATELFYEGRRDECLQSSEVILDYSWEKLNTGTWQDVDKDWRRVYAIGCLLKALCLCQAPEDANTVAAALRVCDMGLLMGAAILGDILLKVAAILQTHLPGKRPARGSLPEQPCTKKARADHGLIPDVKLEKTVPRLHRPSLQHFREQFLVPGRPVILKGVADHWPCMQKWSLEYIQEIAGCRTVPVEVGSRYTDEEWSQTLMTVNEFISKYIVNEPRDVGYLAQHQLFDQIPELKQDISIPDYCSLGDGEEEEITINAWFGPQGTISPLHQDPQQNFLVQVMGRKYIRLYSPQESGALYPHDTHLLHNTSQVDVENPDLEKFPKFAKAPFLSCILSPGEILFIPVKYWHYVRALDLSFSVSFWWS

Biological target: PKM2 (human (endogenous in breast cancer cell lines)) (UniProt P14618)
Assay: co-IP; BC cell lysates in IP lysis buffer (25 mM Tris-HCl pH 7.4, 150 mM NaCl, 1% NP-40, 1 mM EDTA, 5% glycerol), 2 µg primary antibody or IgG with Protein A/G PLUS-Agarose, 4 °C overnight, immunoblot; cells also with LINC01094 overexpression or knockdown

Row | binding | Substance
1 | binds | HIF‐1α (from UniProt Q16665 1-826)
2 | binds | JMJD5 (from UniProt Q8N371 1-416) (enzyme)
